Reference: PubChem BioAssay AID1259267 (Sanger Institute, 2017)

Assay: 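Which kinases and bowel-cancer genes GP5D cells need, with or without anchor drugs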 (primary screen)
System: human GP5D colorectal cancer cells
Reagents: siRNA pool against human genes
Treatment: anchor drugs at low dose: BYL719 1 µM, cetuximab 5 µg/ml, trametinib 10 nM, or DMSO vehicle
Detection: 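Viability against non-targeting pool, replicate mean: robust z-score for knock-down alone, fraction with DMSO, synergy with BYL719 1 µM, cetuximab 5 µg/ml, trametinib 10 nM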
Reading the numbers: robust z-score, knock-down alone and viability with DMSO: higher = more viable cells; synergy score with trametinib: higher = stronger synthetic lethal synergy with drug
Rule for the call: 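a robust z-score below -3 for the knock-down by itself makes a gene active, i.e. essential alone; synergy scores are ignored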
Calls: active = essential alone; inactive = not essential
Shown is an unselected part of 794 reagents. 9 of them (1.1%) count as active. 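Viability capped at 1; calls reflect loss of viability from knock-down alone, not synergy with drugs.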 A number with no mark means an inactive call. Not all columns of the deposit are shown. The record does not give: the amount of reagent, the time to read-out.

| target | robust z-score, knock-down alone | viability with DMSO (fraction of control) | synergy score with trametinib |
| --- | --- | --- | --- |
| DCK | -2.98 | 0.196 | -0.0512 |
| ITPK1 | 0.817 | 1 | -0.116 |
| CSNK1A1L | 0.817 | 1 | 0.221 |
| TLK1 | -0.237 | 0.777 | 0.192 |
| WNK1 | 0.817 | 1 | -0.197 |
| PCK1 | 0.119 | 0.852 | 0.215 |
| CAMK2A | 0.0419 | 0.836 | -0.198 |
| MINK1 | 0.817 | 1 | 0.0865 |
| SRMS | 0.817 | 1 | -0.0113 |
| SPHK2 | -0.386 | 0.745 | 0.297 |
| HIPK1 | 0.817 | 1 | -0.153 |
| ROS1 | 0.426 | 0.917 | -0.263 |
| CALM3 | 0.311 | 0.893 | -0.12 |
| ASPM | 0.274 | 0.885 | 0.0931 |
| AXIN2 | 0.817 | 1 | -0.105 |
| TAF1 | -0.275 | 0.768 | -0.201 |
| NTRK1 | -0.383 | 0.746 | 0.112 |
| PFKFB3 | 0.817 | 1 | 0.213 |
| TWF1 | -1.03 | 0.608 | -0.133 |
| PACSIN1 | 0.817 | 1 | 0.00773 |
| RET | 0.817 | 1 | 0.161 |
| GK2 | -0.0623 | 0.814 | 0.0477 |
| NEK5 | 0.564 | 0.946 | 0.0376 |
| LRRK2 | 0.817 | 1 | 0.151 |
| LMTK2 | -0.989 | 0.617 | 0.154 |
| AK7 | -0.317 | 0.76 | -0.364 |
| GALK2 | -1.17 | 0.578 | 0.28 |
| MAPK12 | 0.409 | 0.913 | -0.267 |
| CASK | 0.817 | 1 | 0.104 |
| STK33 | 0.817 | 1 | 0.0257 |
| EPHA7 | -0.795 | 0.658 | -0.0584 |
| RIPK3 | 0.817 | 1 | 0.081 |
| ERBB3 | -1.26 | 0.559 | 0.17 |
| PAK6 | 0.817 | 1 | 0.139 |
| AK5 | -0.664 | 0.686 | -0.289 |
| CKMT2 | 0.817 | 1 | -0.163 |
| PRKG2 | 0.817 | 1 | 0.192 |
| MAP4K2 | 0.209 | 0.871 | -0.0691 |
| CDKL3 | 0.558 | 0.945 | 0.429 |
| XYLB | 0.817 | 1 | 0.0741 |
| ROCK1 | 0.817 | 1 | -0.197 |
| CAMK1G | 0.817 | 1 | -0.197 |
| MAP3K13 | 0.748 | 0.985 | 0.195 |
| UCK1 | 0.725 | 0.981 | 0.118 |
| SGK1 | -0.333 | 0.756 | -0.0717 |
| CDC42BPB | 0.817 | 1 | -0.0645 |
| CKB | -0.956 | 0.624 | -0.135 |
| STAG2 | -0.661 | 0.687 | 0.00701 |
| MAPK3 | -2.21 | 0.358 | -0.0468 |
| DGKA | -0.876 | 0.641 | -0.0737 |

Targets listed so far whose gene name begins with C or c (9):
| target | robust z-score, knock-down alone | viability with DMSO (fraction of control) | synergy score with trametinib |
| --- | --- | --- | --- |
| CSNK1A1L | 0.817 | 1 | 0.221 |
| CAMK2A | 0.0419 | 0.836 | -0.198 |
| CALM3 | 0.311 | 0.893 | -0.12 |
| CASK | 0.817 | 1 | 0.104 |
| CKMT2 | 0.817 | 1 | -0.163 |
| CDKL3 | 0.558 | 0.945 | 0.429 |
| CAMK1G | 0.817 | 1 | -0.197 |
| CDC42BPB | 0.817 | 1 | -0.0645 |
| CKB | -0.956 | 0.624 | -0.135 |
